According to paper PMC4337568:
These are yes or no findings as the source states them, for the method shown. Some entries that bind do so weakly or less than the wild type.

The chains behind the UniProt entries cited, without tags or fusion partners.
UniProt P84077: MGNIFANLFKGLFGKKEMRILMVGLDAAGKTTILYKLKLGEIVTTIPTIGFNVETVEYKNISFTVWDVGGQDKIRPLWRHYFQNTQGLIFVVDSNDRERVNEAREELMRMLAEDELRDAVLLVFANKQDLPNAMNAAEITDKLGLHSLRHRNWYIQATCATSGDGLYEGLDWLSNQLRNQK

Biological target: myristoylated Arf1, GTP-loaded, anchored to phospholipid-coated silica beads (UniProt P84077)
Test: pull-down; myristoylated GTP-loaded Arf1 anchored to phospholipid-coated silica beads, incubated with GGA3^GAT, washed, then incubated 10 min in HKSM (10 mM HEPES pH 7.4, 100 mM KCl, 1 mM MgCl) with buffer or Arf GAPs; beads washed, membrane-bound proteins extracted with SDS-urea, SDS-PAGE and immunoblot; both purified

B1: GAT domain of GGA3 (domain or fragment, UniProt Q9NZ52 171-298)
chain: DEEKSKLLAKLLKSKNPDDLQEANKLIKSMVKEDEARIQKVTKRLHTLEEVNNNVRLLSEMLLHYSQEDSSDGDRELMKELFDQCENKRRTLFKLASETEDNDNSLGDILQASDNLSRVINSYKTIIE
  binding: binds
